At least one read-out could not be matched to a standard name with certainty.
Conditions: coated substance versus the poorly-soluble substance itself; same dissolution test
Procedure: The rotation number of the stirrer was 120 rpm, and all of the tests were conducted in a thermostat at 37±0.5° C. Two types of test solutions, namely, distilled water and 2nd fluid for disintegration test (pH 6.8) of the Japanese Pharmacopoeia were used. As such 2nd fluid for disintegration test of the Japanese Pharmacopoeia, a solution prepared by diluting the 10-fold concentration solution of Kanto Kagaku Co., Ltd. with distilled water was used.
A comparative test was carried out in the same manner as that described above with the exception that a poorly-soluble substance or the like was used in an amount equal to that of a substance with improved aqueous solubility, instead of the substance with improved aqueous solubility.
1 mL of the solution was sampled in an Eppendorf centrifuge tube, 1, 3, 10, 30, 60, 180 and 360 minutes after initiation of the test. The thus sampled solution was centrifuged at 12,000 rpm for 5 minutes. […] In the case of the comparative test, the poorly-soluble substance or the like, which had not been dissolved in the solution, was removed. An aliquot of this supernatant was immediately frozen. […] The dissolved poorly-soluble substance was measured mainly using a dual wavelength absorption photometer. […]

Compound | solubility-improving effect
trimebutine maleate | a solubility-improving effect was obtained
CCOc1cc(C(C)(C)C)ccc1C1COC(c2c(F)cccc2F)=N1 (centres unmarked) [etoxazole] | a solubility-improving effect was obtained

— patent US9023398B2, “Method for improving the aqueous solubility of poorly-soluble substances” (Kabushiki Kaisha Sangi, priority 2009, dated 2015)
